We go through 53 compounds from the supplement of paper PMC10735217.

In this experiment the test system is HEK293A TEAD-LUC reporter. Description: TEAD-luciferase reporter activity (YAP activation), robust Z score vs plate; higher = stronger YAP/TEAD activation. The conditions noted are these: 24 h.

Structures can show the parent of a compound that is named as a salt. Some of the results follow. Single values are uncertain here, since repeats match poorly.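 The human kidney-derived cells carry a stably integrated construct of eight TEAD-binding elements driving luciferase, read by luminescence in a drug-repurposing library screen. A compound counts as a hit when its signal is more than five robust Z scores above the plate mean.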

Turning to `Cc1c(CN2CCN(c3cccc(C(F)(F)F)c3)CC2)cc(-c2ccccc2)n1NC(=O)c1ccncc1`, the TEAD-luciferase reporter activity is inactive: 0.781 (compound concentration: 200 nM), inactive: 0.607 (compound concentration: 2 uM) and inactive: -1.61 (compound concentration: 10 uM).
Turning to `CC(C)(C)c1ccc(OCC(O)COc2ccc(C(=O)O)cc2)cc1` (stereo not given) [terbufibrol], the TEAD-luciferase reporter activity is, setting by setting: (compound concentration: 200 nM) inactive: -0.993; (compound concentration: 2 uM) inactive: -1.27; (compound concentration: 10 uM) inactive: -0.52.
The corresponding values for `CCN(CC)CCC(=O)N1c2ccccc2Sc2ccc(C(F)(F)F)cc21` are inactive: -0.904, inactive: 1.07 and inactive: -0.209.
Taken in the same sequence, the figures for `OC[C@H]1O[C@@H](OC[C@H]2O[C@@H](O[C@@H]3[C@@H](O)[C@H](O)O[C@H](CO)[C@H]3O)[C@H](O)[C@@H](O[C@@H]3O[C@H](CO)[C@@H](O)[C@H](O)[C@H]3O)[C@@H]2O)[C@H](O)[C@@H](O)[C@@H]1O` [Schizophyllan] were inactive: 0.901, inactive: -0.353 and inactive: 1.3.
For `CC(C)(C)COc1ccc(-n2cc(C(=O)O)cn2)cc1C#N` [Piraxostat], the TEAD-luciferase reporter activity is, setting by setting: (compound concentration: 200 nM) active: 5.42; (compound concentration: 2 uM) inactive: -1.68; (compound concentration: 10 uM) inactive: 0.855.
The corresponding values for `O=C(O)C[C@H](NC(=O)N[C@@H](CSCc1ccccc1)CSc1ccccc1)c1ccc2c(c1)OCO2` are inactive: -1.91, inactive: -1.46 and inactive: -1.53.
Taken in the same sequence, the figures for `O=C(c1ccc2nccnc2c1)N1CCCCC1` were inactive: 0.556, inactive: -0.589 and inactive: 2.19.
Take `O=C1NC(=O)[C@@H](c2cn3c4c(cccc24)CCC3)[C@@H]1c1c[nH]c2ccccc12` [Tivantinib (ARQ 197)]: the TEAD-luciferase reporter activity reads like this: (compound concentration: 200 nM) inactive: -0.71; (compound concentration: 10 uM) inactive: -0.0378.
In the case of `O=C1NC(=O)[C@@H](c2cn3c4c(cccc24)CCC3)[C@@H]1c1c[nH]c2ccccc12` [tivantinib], the TEAD-luciferase reporter activity (compound concentration: 2 uM) was inactive: 0.949.
With `O=C(O)/C=C/C(=O)O` [fumaric acid], the TEAD-luciferase reporter activity by setting is: (compound concentration: 200 nM) inactive: 0.535; (compound concentration: 10 uM) inactive: -1.63.
For the compound `O=C(O)/C=C/C(=O)O` [Fumaric Acid], the TEAD-luciferase reporter activity (compound concentration: 2 uM) was inactive: 0.0447.
For the compound `COc1ccc(NC(=O)C2CCN(C(=O)Cn3c(=O)sc4ccc(Cl)cc43)CC2)cc1`, the TEAD-luciferase reporter activity is, setting by setting: (compound concentration: 200 nM) inactive: -1.37; (compound concentration: 2 uM) inactive: -0.314; (compound concentration: 10 uM) inactive: -0.286.
Taken in the same sequence, the figures for `CC(C)=CCC[C@](C)(O)[C@@H]1CC=C(C)CC1` [Levomenol] were inactive: -0.496, inactive: -0.909 and inactive: 1.54.
Taken in the same sequence, the figures for `Cc1ccc(-n2nc(C(C)(C)C)cc2NC(=O)Nc2ccc(-c3ccc(CN4CCOCC4)nc3)c3ccccc23)cc1` were inactive: -0.557, inactive: 0.135 and inactive: 2.08.
Taken in the same sequence, the figures for `FC1(F)C(F)(F)C(F)(F)C2(F)C(F)(F)C(F)(F)C(F)(F)C(F)(F)C2(F)C1(F)F` (stereo not given) [Perflunafene] were inactive: -1.35, inactive: -1.37 and inactive: 0.053.
Consider `O=P([O-])([O-])OC[C@H]1O[C@](O)(COP(=O)([O-])O)[C@@H](O)[C@@H]1O`, for which the TEAD-luciferase reporter activity runs as follows: (compound concentration: 200 nM) inactive: -0.61; (compound concentration: 2 uM) inactive: -1.4; (compound concentration: 10 uM) inactive: 1.
Taken in the same sequence, the figures for `CN1CCC(=C2c3ccccc3CCc3ccc(C(=O)O)cc32)CC1` were inactive: 2.03, inactive: 0.722 and inactive: 0.464.
Taken in the same sequence, the figures for `c1ccc(-c2cc(CCC3CCNCC3)c3ccccc3n2)cc1` [pipequaline] were inactive: -0.423, inactive: 0.631 and inactive: -0.692.
For `Cc1cc(-c2nc(CN3CCNCC3)no2)cc2c1C(=O)N(Cc1ccc(OC(F)(F)F)cc1)C2`, the TEAD-luciferase reporter activity by setting is: (compound concentration: 200 nM) inactive: -0.671; (compound concentration: 2 uM) inactive: -0.318; (compound concentration: 10 uM) inactive: -0.296.
For `Cc1ccc(/C(=C\CN2CCCC2)c2ccccn2)cc1` [Triprolidine hydrochloride], the TEAD-luciferase reporter activity reads like this: (compound concentration: 200 nM) inactive: -1.62; (compound concentration: 2 uM) inactive: -0.693; (compound concentration: 10 uM) inactive: -0.816.
Consider `O=C1[O][Pt]2(<-[NH2]C[C@H]3CCC[NH]->23)[O]C(=O)C12CCC2`, for which the TEAD-luciferase reporter activity is, setting by setting: (compound concentration: 200 nM) inactive: -1.33; (compound concentration: 10 uM) inactive: 0.72.
For `O=C(NNCNNC(=O)c1ccncc1)c1ccncc1`, the TEAD-luciferase reporter activity reads like this: (compound concentration: 200 nM) inactive: 0.516; (compound concentration: 2 uM) inactive: -2.2; (compound concentration: 10 uM) inactive: -0.009.
Take `COc1cc(C(=O)C(=O)N2CCCC[C@H]2C(=O)OC(CCCc2cccnc2)CCCc2cccnc2)cc(OC)c1OC`: the TEAD-luciferase reporter activity is inactive: -2.67 (compound concentration: 200 nM), inactive: -1.33 (compound concentration: 2 uM) and inactive: -0.119 (compound concentration: 10 uM).
The corresponding values for `CCCCc1cc(OC)c2ccccc2c1OC(C)=O` [Bunaprolast] are inactive: 3.42, inactive: 0.483 and inactive: -0.444.
Taken in the same sequence, the figures for `O=C1NC(=O)C(S(=O)(=O)c2ccc3ccccc3c2)S1` (stereo not given) were inactive: -0.611, inactive: -1.66 and inactive: -0.0949.
As for `CCC(C)n1ncn(-c2ccc(N3CCN(c4ccc(OCC5COC(Cn6cncn6)(c6ccc(F)cc6F)O5)cc4)CC3)cc2)c1=O` (stereo not given), the TEAD-luciferase reporter activity was inactive: -1.73 (compound concentration: 200 nM), inactive: -1.27 (compound concentration: 2 uM) and inactive: -0.398 (compound concentration: 10 uM).
The corresponding values for `CC(C)(C(=O)O)c1ccc(C(=O)CCCN2CCC(OC(c3ccccc3)c3ccccc3)CC2)cc1` [Carebastine] are inactive: -0.948, inactive: 0.645 and inactive: 0.254.
For the compound `C[C@H]1Oc2cc(cnc2N)-c2c(nn(C)c2C#N)CN(C)C(=O)c2ccc(F)cc21`, the TEAD-luciferase reporter activity by setting is: (compound concentration: 200 nM) inactive: 0.451; (compound concentration: 2 uM) inactive: -1.8; (compound concentration: 10 uM) inactive: 2.09.
For `C[C@]12C=CC(=O)C=C1CC[C@@H]1[C@@H]2[C@@H](O)C[C@@]2(C)[C@H]1CC[C@]2(O)C(=O)COC(=O)c1ccc(CO[N+](=O)[O-])cc1`, the TEAD-luciferase reporter activity is inactive: -0.858 (compound concentration: 200 nM), inactive: -1.07 (compound concentration: 2 uM) and inactive: -1.06 (compound concentration: 10 uM).
With `N=C(N)c1ccc(/N=N/Nc2ccc(C(=N)N)cc2)cc1` [Diminazene Aceturate], where the note is “compound concentration: 2 uM”, the TEAD-luciferase reporter activity is inactive: -1.41.
For `N=C(N)c1ccc(/N=N/Nc2ccc(C(=N)N)cc2)cc1` [diminazene diaceturate], the TEAD-luciferase reporter activity is inactive: 0.662 (compound concentration: 200 nM) and inactive: 0.939 (compound concentration: 10 uM).
Regarding `NCC(=O)Oc1ccc2c3c(cccc13)OC1(C=CC(=O)c3c(O)cccc31)O2` (stereo not given), the TEAD-luciferase reporter activity runs as follows: (compound concentration: 200 nM) inactive: -1.2; (compound concentration: 2 uM) inactive: 0.139; (compound concentration: 10 uM) inactive: 2.87.
`CC(=O)N1Cc2ccccc2CC2(CCCN2Cc2ccccc2)C1` (stereo not given): the TEAD-luciferase reporter activity reads like this: (compound concentration: 200 nM) inactive: 0.473; (compound concentration: 10 uM) inactive: 1.2.
For `CN1CCCCC1CCN1c2ccccc2Sc2ccc(S(C)=O)cc21` (stereo not given) [Mesoridazine], the TEAD-luciferase reporter activity is, setting by setting: (compound concentration: 200 nM) inactive: -0.534; (compound concentration: 10 uM) inactive: 2.86.
As to `CN1CCCCC1CCN1c2ccccc2Sc2ccc(S(C)=O)cc21` (stereo not given), the TEAD-luciferase reporter activity (compound concentration: 2 uM) was inactive: -1.19.
Take `O=Cc1cccc(N2CCN(C(=O)Nc3ccccc3)CC2=O)c1`: the TEAD-luciferase reporter activity is, setting by setting: (compound concentration: 200 nM) inactive: 0.0234; (compound concentration: 10 uM) inactive: 0.664.
As for `CCOC(=O)CCNC(=O)N[C@H]1CCN(c2ccc(C(=N)NO)cc2)C1=O`, the TEAD-luciferase reporter activity is, setting by setting: (compound concentration: 200 nM) inactive: -0.554; (compound concentration: 2 uM) inactive: -0.259; (compound concentration: 10 uM) inactive: -0.352.
Turning to `CC(C)Cn1nnnc1-c1cccc(N)c1`, the TEAD-luciferase reporter activity reads like this: (compound concentration: 200 nM) inactive: 0.8; (compound concentration: 2 uM) inactive: -0.0109; (compound concentration: 10 uM) inactive: -0.478.
The corresponding values for `Clc1ccc(C(Cn2ccnc2)OCc2ccsc2Cl)c(Cl)c1` (stereo not given) [tioconazole] are inactive: -0.793, inactive: -0.475 and inactive: 2.64.
Take `CC(C)C[C@H](NC(=O)[C@@H](Cc1ccc2ccccc2c1)NC(=O)[C@H](Cc1ccc(O)cc1)NC(=O)[C@H](CO)NC(=O)[C@H](Cc1c[nH]c2ccccc12)NC(=O)[C@H](Cc1c[nH]cn1)NC(=O)[C@@H]1CCC(=O)N1)C(=O)N[C@@H](CCCNC(=N)N)C(=O)N1CCC[C@H]1C(=O)NCC(N)=O` [Nafarelin]: the TEAD-luciferase reporter activity is inactive: -1.29 (compound concentration: 200 nM) and inactive: -0.914 (compound concentration: 10 uM).
`CC[C@H](C)Nc1nc(C)nc2c(-c3c(C)cc(OC)cc3OC)c(C)nn12`: the TEAD-luciferase reporter activity was inactive: -0.0145 (compound concentration: 200 nM), inactive: -1.46 (compound concentration: 2 uM) and inactive: 0.882 (compound concentration: 10 uM).
Take `C[C@]12CC[C@@H]3c4ccc(O)cc4CC[C@H]3[C@@H]1C[C@H]1O[C@H]12`: the TEAD-luciferase reporter activity was inactive: -0.803 (compound concentration: 200 nM), inactive: -0.678 (compound concentration: 2 uM) and inactive: -1.23 (compound concentration: 10 uM).
In the case of `Cc1ccc(S(=O)(=O)[N-]c2n[n+](-c3cccc(Cl)c3C)no2)cc1`, the TEAD-luciferase reporter activity is, setting by setting: (compound concentration: 200 nM) inactive: -1.36; (compound concentration: 2 uM) inactive: 1.13; (compound concentration: 10 uM) inactive: -0.525.
Taken in the same sequence, the figures for `NC(=O)N(O)C[C@H]1COc2ccc(Oc3ccc(F)cc3)cc2O1` were inactive: 1.05, inactive: -0.315 and inactive: 0.474.
The corresponding values for `COC(=O)C(Cc1ccc(CCOc2ccc(OS(C)(=O)=O)cc2)cc1)SCCc1ccc(O)cc1` (stereo not given) are inactive: 0.0135, inactive: -1.58 and inactive: 1.06.
On to `CCN(CC)CC#CCC1(C)c2ccccc2-c2ccccc21`, for which the TEAD-luciferase reporter activity was inactive: -2.05 (compound concentration: 200 nM), inactive: 0.828 (compound concentration: 2 uM) and inactive: 1.56 (compound concentration: 10 uM).
The corresponding values for `CCOC(=O)CC1COc2ccc(NC(=O)c3ccc(C(=N)N4CCOCC4)cc3)cc2C1` (stereo not given) are inactive: -1.53, inactive: 0.983 and inactive: 0.0433.
As to `O=C1CC2(CCCC2)C(O)C(=O)N1CCCCN1CCN(c2ncccn2)CC1` (stereo not given) [6-Hydroxybuspirone], the TEAD-luciferase reporter activity by setting is: (compound concentration: 200 nM) inactive: 0.557; (compound concentration: 2 uM) inactive: -2.22; (compound concentration: 10 uM) inactive: 1.93.
Taken in the same sequence, the figures for `CN/C(=N\S(=O)(=O)N1CCCCC1)N1C[C@@H](c2ccccc2)C(c2ccc(Cl)cc2)=N1` were inactive: -0.25, inactive: -0.839 and inactive: 1.14.
The corresponding values for `COc1ccc(OCC(F)(F)C(F)F)c(C(=O)O)c1` are inactive: -2.35, inactive: 0.138 and inactive: -0.454.
For `CCC(=O)O[C@]1(C(=O)CCl)[C@@H](C)C[C@H]2[C@@H]3CCC4=CC(=O)C=C[C@]4(C)[C@@]3(F)[C@@H](O)C[C@@]21C` [clobetasol propionate, Foamix], the TEAD-luciferase reporter activity (compound concentration: 2 uM) is inactive: 0.426.
In the case of `CCC(=O)O[C@]1(C(=O)CCl)[C@@H](C)C[C@H]2[C@@H]3CCC4=CC(=O)C=C[C@]4(C)[C@@]3(F)[C@@H](O)C[C@@]21C` [Clobetasol propionate], the TEAD-luciferase reporter activity (compound concentration: 200 nM) was inactive: -0.267 and the TEAD-luciferase reporter activity (compound concentration: 10 uM) is inactive: 1.76.
With `N#Cc1cnn2c1N(C(=O)CN1CCN(Cc3ccccc3)CC1)CC=C2c1cccc(C(F)(F)F)c1`, the TEAD-luciferase reporter activity by setting is: (compound concentration: 200 nM) inactive: -0.525; (compound concentration: 2 uM) inactive: -0.978; (compound concentration: 10 uM) inactive: 0.925.
